The test has as its target T1, FLAG-HA(FH)-LZTR1 (UniProt Q8N653).
T1 sequence: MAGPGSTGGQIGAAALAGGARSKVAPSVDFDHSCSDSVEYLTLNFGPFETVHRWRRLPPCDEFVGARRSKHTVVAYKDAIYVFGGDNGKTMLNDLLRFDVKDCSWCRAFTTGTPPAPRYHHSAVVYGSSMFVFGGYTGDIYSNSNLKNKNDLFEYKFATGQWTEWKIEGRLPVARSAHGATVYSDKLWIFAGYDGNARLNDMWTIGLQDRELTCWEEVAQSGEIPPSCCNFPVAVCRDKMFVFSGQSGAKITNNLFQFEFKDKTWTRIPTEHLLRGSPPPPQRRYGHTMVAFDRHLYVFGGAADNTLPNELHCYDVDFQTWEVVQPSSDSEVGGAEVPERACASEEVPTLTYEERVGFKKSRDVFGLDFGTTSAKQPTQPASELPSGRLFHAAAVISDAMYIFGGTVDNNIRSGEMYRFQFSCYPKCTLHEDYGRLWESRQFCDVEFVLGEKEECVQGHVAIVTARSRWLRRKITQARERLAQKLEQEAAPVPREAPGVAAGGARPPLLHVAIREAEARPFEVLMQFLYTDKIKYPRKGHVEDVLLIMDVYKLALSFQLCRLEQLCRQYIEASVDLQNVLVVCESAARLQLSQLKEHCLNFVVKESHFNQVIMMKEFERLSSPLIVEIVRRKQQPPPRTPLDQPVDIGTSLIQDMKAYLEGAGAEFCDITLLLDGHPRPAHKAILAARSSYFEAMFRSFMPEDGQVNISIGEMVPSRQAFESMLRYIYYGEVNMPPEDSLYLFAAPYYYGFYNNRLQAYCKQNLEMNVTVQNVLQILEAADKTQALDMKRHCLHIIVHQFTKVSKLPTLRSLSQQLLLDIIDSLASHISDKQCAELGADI
Nature of the test: affinity purification with mass spectrometry.

The record followed here is article doi:10.1101/2020.03.14.989954.

No constants are given. Whether binding was seen depends on the method and setting. Binding seen in cells or lysates may run through a third protein. Here binding means that the protein was enriched with, or labelled near, the bait; the list need not be complete. Sequences can lack the tags named with a protein.

As to “endogenous RIT1 (293T) (from UniProt Q92963 1-219)”, the binding entry is listed as “binds”.
